Results are given in words; binding and its absence hold for the method and conditions named. Binding calls can cover weak binding; strength is not graded here. Sequences can lack the tags named with a protein.

In the test the target is MBP-tagged viral p33 protein (the C-terminal portion) (TBSV). In words: pull-down; MBP-tagged p33 portions immobilized on amylose columns, incubated with 15 µg purified His6-Vps4p or His6-Vps4(101-437) for 1 h at 4°C, eluted with 10 mM maltose; anti-His Western blot; both purified. (In general: In western blotting, separated proteins are transferred to a membrane and probed.)

B1: His6-tagged Vps4p purified from E. coli (protein, UniProt P52917 1-437)
chain: MSTGDFLTKGIELVQKAIDLDTATQYEEAYTAYYNGLDYLMLALKYEKNPKSKDLIRAKFTEYLNRAEQLKKHLESEEANAAKKSPSAGSGSNGGNKKISQEEGEDNGGEDNKKLRGALSSAILSEKPNVKWEDVAGLEGAKEALKEAVILPVKFPHLFKGNRKPTSGILLYGPPGTGKSYLAKAVATEANSTFFSVSSSDLVSKWMGESEKLVKQLFAMARENKPSIIFIDEVDALTGTRGEGESEASRRIKTELLVQMNGVGNDSQGVLVLGATNIPWQLDSAIRRRFERRIYIPLPDLAARTTMFEINVGDTPCVLTKEDYRTLGAMTEGYSGSDIAVVVKDALMQPIRKIQSATHFKDVSTEDDETRKLTPCSPGDDGAIEMSWTDIEADELKEPDLTIKDFLKAIKSTRPTVNEDDLLKQEQFTRDFGQEGN
Regarding B1, the binding result is recorded as “binds”.

Values taken from paper PMC3999190.
